Assay results as given in US20040086946A1, “Methods of isolation of active compounds and activated targets” (priority 2002, published 2004).
No constants are given. Whether binding was seen depends on the method and setting. Some binding calls cover weakened binding; strength is not graded here.

By UniProt entry, the sequences of proteins in these tests, tags left out. Residues count along the entry.
UniProt Q86YW7, residues 25-130: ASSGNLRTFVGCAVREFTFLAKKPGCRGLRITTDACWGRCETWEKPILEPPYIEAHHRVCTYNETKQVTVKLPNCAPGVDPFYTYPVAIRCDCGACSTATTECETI
UniProt P01215, residues 25-116: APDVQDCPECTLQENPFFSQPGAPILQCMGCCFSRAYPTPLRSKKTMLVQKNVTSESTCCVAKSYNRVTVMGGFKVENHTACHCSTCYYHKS

Assays:
Assay in all cases: extracellular 2-hybrid screen: HFRW-subunit and subunit-MC4R fusions co-expressed in HEK293 CRE-luciferase cells
[1] = molecular target: OGH glycoprotein hormone subunit (UniProt Q86YW7)
[2] = molecular target: hCG glycoprotein hormone subunit (UniProt P0DN86)
[3] = molecular target: alpha2 glycoprotein hormone subunit (UniProt Q96T91)

binding [1]	binding [2]	binding [3]	Substance
binds	binds	binds	alpha2 glycoprotein hormone subunit (from UniProt Q96T91 24-129) (ligand)
–	binds	–	alpha1 glycoprotein hormone subunit (from UniProt P01215 25-116) (ligand)
